From paper PMC9418443
Numbering of substitutions follows the chain as printed. Names and notes keep the numbering of the source. No constants are given. Whether binding was seen depends on the method and setting. For some assays here: In cells and extracts the contact can be indirect. Some entries that bind do so weakly or less than the wild type. Tags and fused reporters may be left off the sequences shown. Values belong to the molecule of their own block, whether it stands above or below them.

Sequences of proteins named here, by UniProt entry; tags and fusion partners are left off. Residues count along the entry.
UniProt Q7K126, residues 522-844: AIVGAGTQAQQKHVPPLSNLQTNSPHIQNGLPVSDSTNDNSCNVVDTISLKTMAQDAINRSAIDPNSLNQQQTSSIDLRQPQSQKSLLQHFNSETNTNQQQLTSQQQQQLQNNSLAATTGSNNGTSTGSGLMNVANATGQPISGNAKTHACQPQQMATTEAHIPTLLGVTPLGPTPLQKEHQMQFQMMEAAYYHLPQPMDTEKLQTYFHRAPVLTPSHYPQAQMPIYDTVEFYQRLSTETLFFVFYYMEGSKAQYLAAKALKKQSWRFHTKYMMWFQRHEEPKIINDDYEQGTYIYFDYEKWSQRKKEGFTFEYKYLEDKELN

Assays:
[1] = molecular target: T1, Pumilio RD3 (amino acids 847-1090) fused to the Gal4 DNA-binding domain (bait) (Drosophila melanogaster) (UniProt P25822); test: two-hybrid; yeast two-hybrid in S. cerevisiae Y2H Gold; baits on Gal4 DNA-binding domain (pGBKT7), preys on Gal4 activation domain (pGADT7); growth on -Leu -Trp -His -Ade plates with X-alpha-gal (ADE2, HIS3, MEL1 reporters), 30 °C
T1 sequence: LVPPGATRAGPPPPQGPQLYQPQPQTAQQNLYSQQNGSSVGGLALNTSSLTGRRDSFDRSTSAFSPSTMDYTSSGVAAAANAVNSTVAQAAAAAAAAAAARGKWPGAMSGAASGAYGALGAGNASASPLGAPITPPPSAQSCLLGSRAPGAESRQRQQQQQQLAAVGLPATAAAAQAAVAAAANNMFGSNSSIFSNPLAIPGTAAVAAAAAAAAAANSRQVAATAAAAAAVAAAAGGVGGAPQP

[2] = molecular target: T2, Pumilio RD3 F1033A + F1040A fused to the Gal4 DNA-binding domain (bait) (Drosophila melanogaster) (UniProt P25822); test: as above
T2 sequence: T1 sequence with F187A, F194A

Not2-3×FLAG (Drosophila) = molecular target: T3, Not2-3×FLAG (Drosophila) (UniProt Q94547); test: co-IP; anti-FLAG M2 beads on lysate of Dmel-2 cells cotransfected with Not2-3×FLAG bait and V5-tagged prey; RNase One and RNase A; 50 mM Tris–HCl pH 8.0, 500 mM NaCl, 1 mM EDTA, 0.2% Triton X-100; 4 °C, 3 h; anti-V5 blot
T3 sequence: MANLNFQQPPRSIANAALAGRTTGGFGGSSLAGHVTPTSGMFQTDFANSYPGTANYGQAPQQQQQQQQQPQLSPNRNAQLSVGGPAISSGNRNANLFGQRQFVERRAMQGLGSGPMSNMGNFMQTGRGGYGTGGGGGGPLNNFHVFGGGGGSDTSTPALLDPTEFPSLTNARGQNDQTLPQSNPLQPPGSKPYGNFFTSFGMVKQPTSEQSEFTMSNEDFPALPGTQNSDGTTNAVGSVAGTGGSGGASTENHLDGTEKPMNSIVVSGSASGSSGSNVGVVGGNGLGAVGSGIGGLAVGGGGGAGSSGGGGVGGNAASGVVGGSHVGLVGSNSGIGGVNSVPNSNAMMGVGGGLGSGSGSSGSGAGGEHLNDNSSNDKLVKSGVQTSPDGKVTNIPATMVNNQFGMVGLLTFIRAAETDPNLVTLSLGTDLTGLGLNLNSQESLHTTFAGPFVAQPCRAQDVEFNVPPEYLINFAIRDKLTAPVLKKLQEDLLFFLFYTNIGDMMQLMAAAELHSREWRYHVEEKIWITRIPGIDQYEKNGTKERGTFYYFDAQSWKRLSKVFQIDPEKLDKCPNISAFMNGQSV

[3] = molecular target: Not1-3×FLAG, endogenous Drosophila Not1 with a C-terminal 3×FLAG tag (Drosophila (endogenous in DL1)) (UniProt A8DY81); test: co-IP; anti-FLAG M2 beads on lysate of DL1 cells with endogenous Not1-3×FLAG, transfected with V5-tagged prey; RNase One and RNase A; 50 mM Tris–HCl pH 8.0, 500 mM NaCl, 1 mM EDTA, 0.2% Triton X-100; 4 °C, 3 h; anti-V5 blot
[4] = molecular target: T4, Pumilio RD3 F1033A fused to the Gal4 DNA-binding domain (bait) (Drosophila melanogaster) (UniProt P25822); test: two-hybrid; yeast two-hybrid in S. cerevisiae Y2H Gold; baits on Gal4 DNA-binding domain (pGBKT7), preys on Gal4 activation domain (pGADT7); growth on -Leu -Trp -His -Ade plates with X-alpha-gal (ADE2, HIS3, MEL1 reporters), 30 °C
T4 sequence: T1 sequence with F187A

[5] = molecular target: T5, Pumilio RD3 F1040A fused to the Gal4 DNA-binding domain (bait) (Drosophila melanogaster) (UniProt P25822); test: as above
T5 sequence: T1 sequence with F194A

binding [1]: binds | binding [2]: binds
Molecule: Not3-C, C-terminal region of Drosophila Not3 (amino acids 522–844), fused to the Gal4 activation domain (prey) (from UniProt Q7K126 522-844) (domain or fragment)

binding [1]: binds
B1: Pumilio-binding region in Not1 (amino acids 908–995), fused to the Gal4 activation domain (prey) (domain or fragment, UniProt A8DY81 908-995)
chain: VSKEVEDEVNSYFQRIYNHQPNPTLSIDEVLDILQRFKESSNRREQEVFLCMLRNLFEEYRFFCQYPEKELQITAQLFGGIIDRNLVP

Continued, molecule first:

B2: MS2-RD3-V5, wildtype Pumilio RD3 fused to the MS2 coat protein RNA-binding domain with C-terminal V5 tag (domain or fragment, UniProt P25822 847-1090)
chain: T1 sequence
binding (Not2-3×FLAG (Drosophila)): binds | binding [3]: binds

B3: MS2-RD3-V5 F1033A + F1040A mutant (domain or fragment, UniProt P25822 847-1090)
chain: T1 sequence with F187A, F194A
binding (Not2-3×FLAG (Drosophila)): binds

B4: Not2 minimal region (amino acids 465–585), fused to the Gal4 activation domain (prey) (domain or fragment, UniProt Q94547 465-585)
chain: NVPPEYLINFAIRDKLTAPVLKKLQEDLLFFLFYTNIGDMMQLMAAAELHSREWRYHVEEKIWITRIPGIDQYEKNGTKERGTFYYFDAQSWKRLSKVFQIDPEKLDKCPNISAFMNGQSV
binding [1]: binds

B5: Not2 subunit of the Drosophila CCR4–NOT complex, fused to the Gal4 activation domain (prey) (protein, UniProt Q94547 1-585)
chain: T3 sequence
binding [1]: binds | binding [2]: binds | binding [4]: binds | binding [5]: binds
